# Test results reported in US11000506B2, “Envenomation therapies and related pharmaceutical compositions, systems and kits” (OPHIREX, INC, priority 2014, dated 2021).
# Target: snake venom metalloproteinase
# Test: IC50 for MP inhibition on various venoms (Table 8, FIG. 20)
# Type: biochemical
# Settings: general statement; values only in figures
smiles,measurement,value
O=C(CCCCCCC(=O)Nc1ccccc1)NO [Vorinostat],IC50s on various venoms,micromolar range
